Each number is a percent effect as filed. How 0% and 100% were set is not recorded. Most values in the screen are low, and negative values occur. The compounds are a random part of those screened. A dash means the value is not listed here; it may have been measured.

Mtb heat-shock: 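Assay on Mycobacterium tuberculosis, filed only as a heat shock assay from Cornell; the read-out is not stated. The concentration is filed as 10 mM, unlikely as a test dose, so the dose is not known. Higher reads as stronger inhibition (inferred: compounds with an IC50 in retests scored well above the rest). About 69,000 compounds were tested under these conditions; 1.4% (about 930) showed 50% or more at least once.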
Mtb growth Cornell: 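Whole-cell assay for inhibitors of Mycobacterium tuberculosis growth, labelled Cornell in the record; the read-out is not stated. The concentration is filed as 10 mM, unlikely as a test dose, so the dose is not known. Higher means stronger inhibition (inferred from two other growth screens of the library). Size under these conditions: about 53,000 compounds, about 900 of them at 50% or above in at least one test.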

compound	Mtb heat-shock	Mtb growth Cornell
Cc1cccc(C2(NC(=O)CCCn3cncn3)CCCC2)c1	-2.695	-
CC(OCC(F)(F)F)C(=O)N1CCCC1 (stereo not given)	-23.78	-9.816
CNC(=O)c1nc2c(s1)CCN(C(=O)Cc1ccc(OC)cc1)CC2	-15.36	-13.23
O=C1CCC2(CCNCC2)CN1CCCOc1cccnc1	-26.64	5.978
COc1ccc(CNC(=O)NCc2ccc(C)cc2)cn1	24.62	9.624
CNCc1ccc(OCc2ccc3c(c2)OCCO3)cc1.Cl	-10.36	9.088
CN(C)CCN1CCN(C(=O)c2ccn(C)c(=O)c2)CC1	-5.089	-6.193
Cc1cnn(CCC(=O)N2CCOC(c3nc(C(C)(C)C)n[nH]3)C2)c1 (stereo not given)	-2.425	-5.628
CNc1ncc(CN(C)C(=O)c2c[nH]nc2-c2cccc(F)c2)cn1	14.24	11.75
Cc1ccc(C(=O)NS(C)(=O)=O)cc1S(C)(=O)=O	9.632	4.572
CC(C)(C)CN1CCN(CC2CC2)C(CCO)C1 (stereo not given)	12.15	19.44
COc1cc(CNC(=O)c2csc(Br)c2)ccn1	1.932	5.577
Cn1ccnc1CN1CCN(c2ccc(C#N)cc2F)CC1	-11.03	26.75
COc1cnc(C2(O)CCN(C(=O)c3ccco3)CC2)c(OC)n1	7.034	-
O=S(=O)(NC1=NCN(CCc2cccs2)CN1)c1ccc(Br)cc1	12.12	-34.07
[H][C@@]12CN(C3CCCCC3)C(=O)N1CCN(S(C)(=O)=O)C2	-49.33	-11.35
O=C(O)C(F)(F)F.[H][C@]12CCC[C@@]1(COCc1ccccn1)CN(C(=O)CS(C)(=O)=O)C2	1.254	-5.633
CC(C)c1nccn1CCCNC(=O)c1ccc(-c2cncnc2)nc1	-9.214	24.31
CSc1ccc(OCCN2CCNC(=O)CC2)cc1	-38.14	-3.721
N#Cc1ccc(CN2CCCC3(Cc4ccccc4CNC3=O)C2)cc1 (stereo not given)	-22.57	-
OC1(CNCc2noc(Cc3ccccc3)n2)CCCNC1 (stereo not given)	-26.71	12.9
O=C(c1ccc(Cl)cn1)N1CCC(COCc2ccccc2)C1 (stereo not given)	5.3	-1.842
COc1ccc(N2Cc3nc(=O)[nH]n3C2=O)cc1	-12.8	-26.19
COCCC(=O)NCCn1nc(C2CCNC2)c2cccnc21.Cl (stereo not given)	-24.62	-34.53
CCNC(=O)N1CCc2ccc(NC(=O)NCc3ccsc3)cc21	13.42	-4.17
CNS(=O)(=O)c1cc(C(=O)N2CCCCCC2CC(C)C)co1 (stereo not given)	-20.74	11.56
Cc1cc(NCCO)nc2[nH]nc(N)c12	-0.2802	15.94
[H][C@]12CN(CC(C)C)C(=O)[C@@]1([H])CN(S(=O)(=O)c1cccs1)C2	-6.864	-
Cc1oncc1C(=O)N1CCOCC2(CCN(c3ccccn3)C2)C1.O=C(O)C(F)(F)F (stereo not given)	-28.52	-11.19
Cc1nc(C)c(C(=O)N2CCc3nnc(C4CCCCN4C)n3CC2)o1 (stereo not given)	0.6934	19.3
c1csc(CN(Cc2ccsc2)CC2CCCO2)n1 (stereo not given)	-21.23	0.057
Cc1ccc(CNCc2nnc3n2CCCC3C(F)(F)F)o1 (stereo not given)	1.067	4.331
Cc1cccc(-c2nnc(C(C)NCCn3cc(C)cn3)o2)c1 (stereo not given)	-11.21	-19.41
Cc1ccc(C(=O)NCc2ccnc(N(C)C)c2)c(C)c1	-9.421	-
CC(C)(O)CCc1ccc(C(=O)N2Cc3cnn(CCO)c3C2)cc1	-5.684	-
Cc1cnc(NC2CCc3c(ccc(=O)n3C)C2)nc1 (stereo not given)	-13.6	11.82
Cc1ccccc1CCC(=O)N1CCCC(c2cc(C(N)=O)[nH]n2)C1 (stereo not given)	-20.35	-
Cc1ccc(F)c(OC2(C(=O)O)CCN(C(=O)C3CCCC3)CC2)c1	-8.615	4.29
O=C(N1CCSCC1)C1(O)Cc2ccccc2C1	-31.81	-
COc1ccc(S(=O)(=O)NC(=O)COc2ccc3c(c2)CCC3)cc1	-1.452	-
CCC(=O)N1CCC(Cc2cc(Nc3ncccn3)ncn2)CC1	-13.62	3.527
CC(C(=O)N1CCn2cncc2C1)N1C[C@@H](C)O[C@@H](C)C1 (stereo not given in full)	12.48	-
CCn1c(CC2CCN(S(=O)(=O)c3cccs3)CC2)nn(C)c1=O	10.66	-47.33
Cc1nc(C)n(CC2CCCN2Cc2nc(-c3ccsc3)no2)n1 (stereo not given)	-28.02	-
[H][C@@]12CCN(Cc3scnc3C)C[C@]1(C(=O)NCC1CC1)CCO2	30.68	-22.57

The first 3 entries again:

- Cc1cccc(C2(NC(=O)CCCn3cncn3)CCCC2)c1 | Mtb heat-shock: -2.695%
- CC(OCC(F)(F)F)C(=O)N1CCCC1 (stereo not given) | Mtb heat-shock: -23.78%; Mtb growth Cornell: -9.816%
- CNC(=O)c1nc2c(s1)CCN(C(=O)Cc1ccc(OC)cc1)CC2 | Mtb heat-shock: -15.36%; Mtb growth Cornell: -13.23%

The values are deposited in ChEMBL (CHEMBL3988442, “University of Dundee, Small-Polar-MMV Screening Library” (2021)).